The record followed here is article doi:10.1101/2024.12.24.629987.

Results are given in words; binding and its absence hold for the method and conditions named. For some of these results: Binding seen in cells or lysates may run through a third protein. For some of these results: Binding can be weak; no strength is given. For some of these results: Sequences can lack the tags named with a protein.

For test [1], the target named is GFP-SJP39 (mature SJP39, GFP-SJP39^32-114) (jujube Witches' Broom (JWB) phytoplasma (Candidatus Phytoplasma ziziphi)). Put plainly: co-IP.
Test [2] deals with SJP39^32-77 in pDEST32 (yeast two-hybrid bait) (jujube Witches' Broom (JWB) phytoplasma (Candidatus Phytoplasma ziziphi)). Nature of the test: two-hybrid.
The target of test [3] is GST-SJP39^78-114 (jujube Witches' Broom (JWB) phytoplasma (Candidatus Phytoplasma ziziphi)). Put plainly: pull-down.
Test [4] has as its target GST-SJP39^32-77 (jujube Witches' Broom (JWB) phytoplasma (Candidatus Phytoplasma ziziphi)). Nature of the test: pull-down.

B1: AtbHLH87-Myc (protein, UniProt Q8S3D2 1-373)
chain: MEGLESVYAQAMYGMTRESKIMEHQGSDLIWGGNELMARELCSSSSYHHQLINPNLSSCFMSDLGVLGEIQQQQHVGNRASSIDPSSLDCLLSATSNSNNTSTEDDEGISVLFSDCQTLWSFGGVSSAESENREITTETTTTIKPKPLKRNRGGDGGTTETTTTTTKPKSLKRNRGDETGSHFSLVHPQDDSEKGGFKLIYDENQSKSKKPRTEKERGGSSNISFQHSTCLSDNVEPDAEAIAQMKEMIYRAAAFRPVNFGLEIVEKPKRKNVKISTDPQTVAARQRRERISEKIRVLQTLVPGGTKMDTASMLDEAANYLKFLRAQVKALENLRPKLDQTNLSFSSAPTSFPLFHPSFLPLQNPNQIHHPEC
In the case of B1, in test [1], the binding entry was “binds”.

B2: AtbHLH87 in pDEST22 (yeast two-hybrid prey) (protein, UniProt Q8S3D2 1-373)
chain: MEGLESVYAQAMYGMTRESKIMEHQGSDLIWGGNELMARELCSSSSYHHQLINPNLSSCFMSDLGVLGEIQQQQHVGNRASSIDPSSLDCLLSATSNSNNTSTEDDEGISVLFSDCQTLWSFGGVSSAESENREITTETTTTIKPKPLKRNRGGDGGTTETTTTTTKPKSLKRNRGDETGSHFSLVHPQDDSEKGGFKLIYDENQSKSKKPRTEKERGGSSNISFQHSTCLSDNVEPDAEAIAQMKEMIYRAAAFRPVNFGLEIVEKPKRKNVKISTDPQTVAARQRRERISEKIRVLQTLVPGGTKMDTASMLDEAANYLKFLRAQVKALENLRPKLDQTNLSFSSAPTSFPLFHPSFLPLQNPNQIHHPEC
Take B2: the binding result in test [2] was “no binding”.

B3: His-AtbHLH87 (protein, UniProt Q8S3D2 1-373)
chain: MEGLESVYAQAMYGMTRESKIMEHQGSDLIWGGNELMARELCSSSSYHHQLINPNLSSCFMSDLGVLGEIQQQQHVGNRASSIDPSSLDCLLSATSNSNNTSTEDDEGISVLFSDCQTLWSFGGVSSAESENREITTETTTTIKPKPLKRNRGGDGGTTETTTTTTKPKSLKRNRGDETGSHFSLVHPQDDSEKGGFKLIYDENQSKSKKPRTEKERGGSSNISFQHSTCLSDNVEPDAEAIAQMKEMIYRAAAFRPVNFGLEIVEKPKRKNVKISTDPQTVAARQRRERISEKIRVLQTLVPGGTKMDTASMLDEAANYLKFLRAQVKALENLRPKLDQTNLSFSSAPTSFPLFHPSFLPLQNPNQIHHPEC
Take B3: the binding entry in test [3] and in test [4] was “no binding” throughout.
